Results as given in publication PMC5323046.

T1: HA-tagged ATG13 (human) (UniProt O75143)
T1 sequence: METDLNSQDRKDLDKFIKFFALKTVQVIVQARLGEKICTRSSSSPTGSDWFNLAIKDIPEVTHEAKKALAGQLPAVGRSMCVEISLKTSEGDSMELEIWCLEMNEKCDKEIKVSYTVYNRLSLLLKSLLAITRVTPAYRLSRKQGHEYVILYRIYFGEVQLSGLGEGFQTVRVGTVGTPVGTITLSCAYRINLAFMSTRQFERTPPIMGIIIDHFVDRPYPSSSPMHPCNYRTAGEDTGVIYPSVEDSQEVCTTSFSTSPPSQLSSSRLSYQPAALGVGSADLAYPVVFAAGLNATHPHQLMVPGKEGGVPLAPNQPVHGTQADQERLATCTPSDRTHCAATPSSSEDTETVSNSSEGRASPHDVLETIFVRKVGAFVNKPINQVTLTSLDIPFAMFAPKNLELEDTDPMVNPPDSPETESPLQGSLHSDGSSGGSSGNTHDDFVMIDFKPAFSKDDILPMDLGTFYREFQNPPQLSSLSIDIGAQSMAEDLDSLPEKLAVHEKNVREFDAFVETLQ

B1: endogenous SMCR8 (protein, UniProt Q8TEV9 1-937)
chain: MISAPDVVAFTKEEEYEEEPYNEPALPEEYSVPLFPFASQGANPWSKLSGAKFSRDFILISEFSEQVGPQPLLTIPNDTKVFGTFDLNYFSLRIMSVDYQASFVGHPPGSAYPKLNFVEDSKVVLGDSKEGAFAYVHHLTLYDLEARGFVRPFCMAYISADQHKIMQQFQELSAEFSRASECLKTGNRKAFAGELEKKLKDLDYTRTVLHTETEIQKKANDKGFYSSQAIEKANELASVEKSIIEHQDLLKQIRSYPHRKLKGHDLCPGEMEHIQDQASQASTTSNPDESADTDLYTCRPAYTPKLIKAKSTKCFDKKLKTLEELCDTEYFTQTLAQLSHIEHMFRGDLCYLLTSQIDRALLKQQHITNFLFEDFVEVDDRMVEKQESIPSKPSQDRPPSSSLEECPIPKVLISVGSYKSSVESVLIKMEQELGDEEYKEVEVTELSSFDPQENLDYLDMDMKGSISSGESIEVLGTEKSTSVLSKSDSQASLTVPLSPQVVRSKAVSHRTISEDSIEVLSTCPSEALIPDDFKASYPSAINEEESYPDGNEGAIRFQASISPPELGETEEGSIENTPSQIDSSCCIGKESDGQLVLPSTPAHTHSDEDGVVSSPPQRHRQKDQGFRVDFSVENANPSSRDNSCEGFPAYELDPSHLLASRDISKTSLDNYSDTTSYVSSVASTSSDRIPSAYPAGLSSDRHKKRAGQNALKFIRQYPFAHPAIYSLLSGRTLVVLGEDEAIVRKLVTALAIFVPSYGCYAKPVKHWASSPLHIMDFQKWKLIGLQRVASPAGAGTLHALSRYSRYTSILDLDNKTLRCPLYRGTLVPRLADHRTQIKRGSTYYLHVQSMLTQLCSKAFLYTFCHHLHLPTHDKETEELVASRQMSFLKLTLGLVNEDVRVVQYLAELLKLHYMQESPGTSHPMLRFDYVPSFLYKI
B2: endogenous C9ORF72 (protein, UniProt Q96LT7 1-481)
chain: MSTLCPPPSPAVAKTEIALSGKSPLLAATFAYWDNILGPRVRHIWAPKTEQVLLSDGEITFLANHTLNGEILRNAESGAIDVKFFVLSEKGVIIVSLIFDGNWNGDRSTYGLSIILPQTELSFYLPLHRVCVDRLTHIIRKGRIWMHKERQENVQKIILEGTERMEDQGQSIIPMLTGEVIPVMELLSSMKSHSVPEEIDIADTVLNDDDIGDSCHEGFLLNAISSHLQTCGCSVVVGSSAEKVNKIVRTLCLFLTPAERKCSRLCEAESSFKYESGLFVQGLLKDSTGSFVLPFRQVMYAPYPTTHIDVDVNTVKQMPPCHEHIYNQRRYMRSELTAFWRATSEEDMAQDTIIYTDESFTPDLNIFQDVLHRDTLVKAFLDQVFQLKPGLSLRSTFLAQFLLVLHRKALTLIKYIEDDTQKGKKPFKSLRNLKIDLDLTAEGDLNIIMALAEKIKPGLHSFIFGRPFYTSVQERDVLMTF
B3: endogenous WDR41 (protein, UniProt Q9HAD4 1-459)
chain: MLRWLIGGGREPQGLAEKSPLQTIGEEQTQNPYTELLVLKAHHDIVRFLVQLDDYRFASAGDDGIVVVWNAQTGEKLLELNGHTQKITAIITFPSLESCEEKNQLILTASADRTVIVWDGDTTRQVQRISCFQSTVKCLTVLQRLDVWLSGGNDLCVWNRKLDLLCKTSHLSDTGISALVEIPKNCVVAAVGKELIIFRLVAPTEGSLEWDILEVKRLLDHQDNILSLINVNDLSFVTGSHVGELIIWDALDWTMQAYERNFWDPSPQLDTQQEIKLCQKSNDISIHHFTCDEENVFAAVGRGLYVYSLQMKRVIACQKTAHDSNVLHVARLPNRQLISCSEDGSVRIWELREKQQLAAEPVPTGFFNMWGFGRVSKQASQPVKKQQENATSCSLELIGDLIGHSSSVEMFLYFEDHGLVTCSADHLIILWKNGERESGLRSLRLFQKLEENGDLYLAV

These binders were tested against T1, HA-tagged ATG13 (human) (assay: affinity purification with mass spectrometry + SEC; HA-IP of HA-ATG13 from 293T-REx cells, HA-peptide eluate on Superose 6 10/300 GL, fractions analysed by mass spectrometry; DMSO or 250 nM Torin1 for 2 hr).

binding, binds:
B1
B2
B3

Results are given in words; binding and its absence hold for the method and conditions named. Binding seen in cells or lysates may run through a third protein. These calls come from enrichment with a bait or labelling near it, and not all partners need be listed. Where a sequence is shown, tags or fusion partners need not be part of it.
